From patent publication US20250145665A1, “MACROCYCLIC PEPTIDES USEFUL AS MODULATORS OF TNF ALPHA” (Bristol-Myers Squibb Company, priority 2023, published 2025)
Some results were stated once for a whole list of compounds, not compound by compound. Positions of bridges follow the written chain, without caps; N, C: chain ends. Non-standard residues stand in square brackets, D forms with d. Residues, ends and D or L forms follow the SMILES beside them. Bip(4'-COOH) = N[C@@H](Cc1ccc(-c2ccc(C(=O)O)cc2)cc1)C(=O)O; Bip(4'-NHAc) = CC(=O)Nc1ccc(-c2ccc(C[C@H](N)C(=O)O)cc2)cc1; Phe(3-CONH2) = NC(=O)c1cccc(C[C@H](N)C(=O)O)c1; Bip = N[C@@H](Cc1ccc(-c2ccccc2)cc1)C(=O)O; 2Pal = N[C@@H](Cc1ccccn1)C(=O)O; 2Thi = N[C@@H](Cc1cccs1)C(=O)O; Chg = N[C@H](C(=O)O)C1CCCCC1; Tle = CC(C)(C)[C@H](N)C(=O)O; Aze = O=C(O)[C@@H]1CCN1; Sar = CNCC(=O)O

Protein sequences, listed by entry. Tags and fused reporters are not part of them. Residues count along the entry.
UniProt P01375, 77-233 limits assumed: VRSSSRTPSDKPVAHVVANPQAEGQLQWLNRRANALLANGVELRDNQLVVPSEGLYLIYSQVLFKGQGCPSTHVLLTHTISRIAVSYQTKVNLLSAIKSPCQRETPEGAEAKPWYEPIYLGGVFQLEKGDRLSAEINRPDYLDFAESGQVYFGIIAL

Biological target: TNFα (Homo sapiens, UniProt P01375)
Experiment: TNF-Induced HEK-Blue Assay
Type: cell-based
Details: summary statement for all examples; read-out: IC50 values measured in the TNF induced HEK-Blue assay

IC50, ≤ 25 µM:
CC[C@H](C)[C@@H]1NC(=O)[C@@H](CCCNC(=N)N)NC(=O)[C@H](CC(=O)O)NC(=O)[C@H](Cc2ccc(O)cc2)NC(=O)CN(C)C(=O)[C@H](Cc2ccc(-c3ccc(NC(C)=O)cc3)cc2)NC(=O)[C@H](Cc2ccc(-c3ccccc3)cc2)NC(=O)[C@H](C(C)(C)C)NC(=O)CSC[C@@H](C(=O)NCC(N)=O)NC(=O)[C@H](CC(C)C)NC(=O)[C@H](Cc2cccs2)NC(=O)[C@H](C(C)C)NC(=O)[C@@H]2CCCN2C1=O [Example 260] ({CH2CO}-[Tle][Bip][Bip(4'-NHAc)][Sar]YD[dR]IPV[2Thi]LCG-NH2; thioether N-13), CC(=O)Nc1ccc(-c2ccc(C[C@@H]3NC(=O)[C@H](Cc4ccc(-c5ccc(C(=O)O)cc5)cc4)NC(=O)[C@H](C(C)(C)C)NC(=O)CSC[C@@H](C(=O)NCC(N)=O)NC(=O)[C@H](CC(C)C)NC(=O)[C@H](Cc4cnc[nH]4)NC(=O)[C@H](C(C)C)NC(=O)[C@@H]4CCCN4C(=O)[C@H](C(C)C)NC(=O)[C@@H](CCCNC(=N)N)NC(=O)[C@H](CC(=O)O)NC(=O)[C@H](Cc4ccccc4)NC(=O)CN(C)C3=O)cc2)cc1 [Example 261] ({CH2CO}-[Tle][Bip(4'-COOH)][Bip(4'-NHAc)][Sar]FD[dR]VPVHLCG-NH2; thioether N-13), CC[C@H](C)[C@@H]1NC(=O)[C@@H](CCCNC(=N)N)NC(=O)[C@H](CC(=O)O)NC(=O)[C@H](Cc2ccccn2)NC(=O)CN(C)C(=O)[C@H](Cc2ccc(-c3ccc(NC(C)=O)cc3)cc2)NC(=O)[C@H](Cc2ccc(-c3ccccc3)cc2)NC(=O)[C@H](C(C)(C)C)NC(=O)CSC[C@@H](C(=O)NCC(N)=O)NC(=O)[C@H](CC(C)C)NC(=O)[C@H](Cc2cccc(C(N)=O)c2)NC(=O)[C@H](C(C)C)NC(=O)[C@@H]2CCCN2C1=O [Example 262] ({CH2CO}-[Tle][Bip][Bip(4'-NHAc)][Sar][2Pal]D[dR]IPV[Phe(3-CONH2)]LCG-NH2; thioether N-13), CC(=O)Nc1ccc(-c2ccc(C[C@@H]3NC(=O)[C@H](Cc4ccc(-c5ccccc5)cc4)NC(=O)[C@H](C(C)(C)C)NC(=O)CSC[C@@H](C(=O)NCC(N)=O)NC(=O)[C@H](CC(C)C)NC(=O)[C@H](Cc4ccccc4)NC(=O)[C@H](C(C)C)NC(=O)[C@@H]4CCCN4C(=O)[C@H](C(C)C)NC(=O)[C@@H](CCCNC(=N)N)NC(=O)[C@H](CC(=O)O)NC(=O)[C@H](Cc4ccc(O)cc4)NC(=O)CN(C)C3=O)cc2)cc1 [Example 263] ({CH2CO}-[Tle][Bip][Bip(4'-NHAc)][Sar]YD[dR]VPVFLCG-NH2; thioether N-13), CC[C@H](C)[C@@H]1NC(=O)[C@@H](CCCNC(=N)N)NC(=O)[C@H](CC(=O)O)NC(=O)[C@H](Cc2ccc(O)cc2)NC(=O)CN(C)C(=O)[C@H](Cc2ccc(-c3ccc(NC(C)=O)cc3)cc2)NC(=O)[C@H](Cc2ccc(-c3ccccc3)cc2)NC(=O)[C@H](C(C)(C)C)NC(=O)CSC[C@@H](C(=O)NCC(N)=O)NC(=O)[C@H](CC(C)C)NC(=O)[C@H](Cc2ccccc2)NC(=O)[C@H](C(C)C)NC(=O)[C@@H]2CCCN2C1=O [Example 264] ({CH2CO}-[Tle][Bip][Bip(4'-NHAc)][Sar]YD[dR]IPVFLCG-NH2; thioether N-13), CC(=O)Nc1ccc(-c2ccc(C[C@@H]3NC(=O)[C@H](Cc4ccc(-c5ccc(C(=O)O)cc5)cc4)NC(=O)[C@H](C(C)(C)C)NC(=O)CSC[C@@H](C(=O)NCC(N)=O)NC(=O)[C@H](CC(C)C)NC(=O)[C@H](Cc4ccc(O)cc4)NC(=O)[C@H](C(C)C)NC(=O)[C@@H]4CCCN4C(=O)[C@H](C(C)C)NC(=O)[C@@H](CCCNC(=N)N)NC(=O)[C@H](CC(=O)O)NC(=O)[C@@H]4CCCN4C(=O)CN(C)C3=O)cc2)cc1 [Example 265] ({CH2CO}-[Tle][Bip(4'-COOH)][Bip(4'-NHAc)][Sar]PD[dR]VPVYLCG-NH2; thioether N-13), CC(=O)Nc1ccc(-c2ccc(C[C@@H]3NC(=O)[C@H](Cc4ccc(-c5ccc(C(=O)O)cc5)cc4)NC(=O)[C@H](C(C)(C)C)NC(=O)CSC[C@@H](C(=O)NCC(N)=O)NC(=O)[C@H](CC(C)C)NC(=O)[C@H](Cc4ccc(O)cc4)NC(=O)[C@H](C(C)C)NC(=O)[C@@H]4CCN4C(=O)[C@H](C(C)C)NC(=O)[C@@H](CCCNC(=N)N)NC(=O)[C@H](CC(=O)O)NC(=O)[C@@H]4CCCN4C(=O)CN(C)C3=O)cc2)cc1 [Example 266] ({CH2CO}-[Tle][Bip(4'-COOH)][Bip(4'-NHAc)][Sar]PD[dR]V[Aze]VYLCG-NH2; thioether N-13), CC[C@H](C)[C@@H]1NC(=O)[C@@H](CCCNC(=N)N)NC(=O)[C@H](CC(=O)O)NC(=O)[C@@H]2CCCN2C(=O)CN(C)C(=O)[C@H](Cc2ccc(-c3ccc(NC(C)=O)cc3)cc2)NC(=O)[C@H](Cc2ccc(-c3ccccc3)cc2)NC(=O)[C@H](C(C)(C)C)NC(=O)CSC[C@@H](C(=O)NCC(N)=O)NC(=O)[C@H](CC(C)C)NC(=O)[C@H](Cc2ccc(O)cc2)NC(=O)[C@H](C(C)C)NC(=O)[C@@H]2CCCN2C1=O [Example 267] ({CH2CO}-[Tle][Bip][Bip(4'-NHAc)][Sar]PD[dR]IPVYLCG-NH2; thioether N-13), CC[C@H](C)[C@@H]1NC(=O)[C@@H](CCCNC(=N)N)NC(=O)[C@H](CC(=O)O)NC(=O)[C@H](Cc2ccccc2)NC(=O)CN(C)C(=O)[C@H](Cc2ccc(-c3ccc(NC(C)=O)cc3)cc2)NC(=O)[C@H](Cc2ccc(-c3ccc(C(=O)O)cc3)cc2)NC(=O)[C@H](C(C)(C)C)NC(=O)CSC[C@@H](C(=O)NCC(N)=O)NC(=O)[C@H](CC(C)C)NC(=O)[C@H](CCCNC(=N)N)NC(=O)[C@H](C2CCCCC2)NC(=O)[C@@H]2CCCN2C1=O [Example 268] ({CH2CO}-[Tle][Bip(4'-COOH)][Bip(4'-NHAc)][Sar]FD[dR]IP[Chg]RLCG-NH2; thioether N-13), CC[C@H](C)[C@@H]1NC(=O)[C@@H](CCCNC(=N)N)NC(=O)[C@H](CC(=O)O)NC(=O)[C@@H]2CCCN2C(=O)CN(C)C(=O)[C@H](Cc2ccc(-c3ccc(NC(C)=O)cc3)cc2)NC(=O)[C@H](Cc2ccc(-c3ccc(C(=O)O)cc3)cc2)NC(=O)[C@H](C(C)(C)C)NC(=O)CSC[C@@H](C(=O)NCC(N)=O)NC(=O)[C@H](CC(C)C)NC(=O)[C@H](Cc2ccc(O)cc2)NC(=O)[C@H](C(C)C)NC(=O)[C@@H]2CCCN2C1=O [Example 269] ({CH2CO}-[Tle][Bip(4'-COOH)][Bip(4'-NHAc)][Sar]PD[dR]IPVYLCG-NH2; thioether N-13), CC[C@H](C)[C@@H]1NC(=O)[C@@H](CCCNC(=N)N)NC(=O)[C@H](CC(=O)O)NC(=O)[C@@H]2CCCN2C(=O)CN(C)C(=O)[C@H](Cc2ccc(-c3ccc(NC(C)=O)cc3)cc2)NC(=O)[C@H](Cc2ccc(-c3ccc(C(=O)O)cc3)cc2)NC(=O)[C@H](C(C)(C)C)NC(=O)CSC[C@@H](C(=O)NCC(N)=O)NC(=O)[C@H](CC(C)C)NC(=O)[C@H](Cc2ccc(O)cc2)NC(=O)[C@H](C2CCCCC2)NC(=O)[C@@H]2CCCN2C1=O [Example 270] ({CH2CO}-[Tle][Bip(4'-COOH)][Bip(4'-NHAc)][Sar]PD[dR]IP[Chg]YLCG-NH2; thioether N-13)
